Assay results from publication PMC8394137.
No constants are given. Whether binding was seen depends on the method and setting. Binding seen in cells or lysates may run through a third protein. Here binding means that the protein was enriched with, or labelled near, the bait; the list need not be complete.

Amino acid sequences for entries named in this document (tags omitted).
UniProt O43736: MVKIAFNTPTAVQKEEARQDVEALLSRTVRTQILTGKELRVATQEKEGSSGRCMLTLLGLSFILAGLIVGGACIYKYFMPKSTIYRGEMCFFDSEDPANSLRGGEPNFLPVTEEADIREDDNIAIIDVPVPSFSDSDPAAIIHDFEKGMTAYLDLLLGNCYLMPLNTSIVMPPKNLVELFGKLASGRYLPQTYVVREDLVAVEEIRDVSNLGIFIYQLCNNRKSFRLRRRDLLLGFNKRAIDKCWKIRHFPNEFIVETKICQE

Biological target: HA-ITM2A (UniProt O43736)
Test: affinity purification with mass spectrometry; HEK293 transfected with HA-ITM2A or empty pcDNA3.1, immunoprecipitated as for co-IP, trypsin digestion, mass spectrometry; proteins of the empty-vector control subtracted

Binder | binding
DARS (protein, UniProt P14868 1-501) MPSASASRKSQEKPREIMDAAEDYAKERYGISSMIQSQEKPDRVLVRVRDLTIQKADEVVWVRARVHTSRAKGKQCFLVLRQQQFNVQALVAVGDHASKQMVKFAANINKESIVDVEGVVRKVNQKIGSCTQQDVELHVQKIYVISLAEPRLPLQLDDAVRPEAEGEEEGRATVNQDTRLDNRVIDLRTSTSQAVFRLQSGICHLFRETLINKGFVEIQTPKIISAASEGGANVFTVSYFKNNAYLAQSPQLYKQMCICADFEKVFSIGPVFRAEDSNTHRHLTEFVGLDIEMAFNYHYHEVMEEIADTMVQIFKGLQERFQTEIQTVNKQFPCEPFKFLEPTLRLEYCEALAMLREAGVEMGDEDDLSTPNEKLLGHLVKEKYDTDFYILDKYPLAVRPFYTMPDPRNPKQSNSYDMFMRGEEILSGAQRIHDPQLLTERALHHGIDLEKIKAYIDSFRFGAPPHAGGGIGLERVTMLFLGLHNVRQTSMFPRDPKRLTP | binds
ERLIN2 (protein, UniProt O94905 1-339) MAQLGAVVAVASSFFCASLFSAVHKIEEGHIGVYYRGGALLTSTSGPGFHLMLPFITSYKSVQTTLQTDEVKNVPCGTSGGVMIYFDRIEVVNFLVPNAVYDIVKNYTADYDKALIFNKIHHELNQFCSVHTLQEVYIELFDQIDENLKLALQQDLTSMAPGLVIQAVRVTKPNIPEAIRRNYELMESEKTKLLIAAQKQKVVEKEAETERKKALIEAEKVAQVAEITYGQKVMEKETEKKISEIEDAAFLAREKAKADAECYTAMKIAEANKLKLTPEYLQLMKYKAIASNSKIYFGKDIPNMFMDSAGSVSKQFEGLADKLSFGLEDEPLETATKEN | binds
G3BP2 (protein, UniProt Q9UN86 1-482) MVMEKPSPLLVGREFVRQYYTLLNKAPEYLHRFYGRNSSYVHGGVDASGKPQEAVYGQNDIHHKVLSLNFSECHTKIRHVDAHATLSDGVVVQVMGLLSNSGQPERKFMQTFVLAPEGSVPNKFYVHNDMFRYEDEVFGDSEPELDEESEDEVEEEQEERQPSPEPVQENANSGYYEAHPVTNGIEEPLEESSHEPEPEPESETKTEELKPQVEEKNLEELEEKSTTPPPAEPVSLPQEPPKAFSWASVTSKNLPPSGTVSSSGIPPHVKAPVSQPRVEAKPEVQSQPPRVREQRPRERPGFPPRGPRPGRGDMEQNDSDNRRIIRYPDSHQLFVGNLPHDIDENELKEFFMSFGNVVELRINTKGVGGKLPNFGFVVFDDSEPVQRILIAKPIMFRGEVRLNVEEKKTRAARERETRGGGDDRRDIRRNDRGPGGPRGIVGGGMMRDRDGRGPPPRGGMAQKLGSGRGTGQMEGRFTGQRR | binds

The next lines start with the values.

binding | Binder
binds | HSD17B12 (protein, UniProt Q53GQ0 1-312) MESALPAAGFLYWVGAGTVAYLALRISYSLFTALRVWGVGNEAGVGPGLGEWAVVTGSTDGIGKSYAEELAKHGMKVVLISRSKDKLDQVSSEIKEKFKVETRTIAVDFASEDIYDKIKTGLAGLEIGILVNNVGMSYEYPEYFLDVPDLDNVIKKMININILSVCKMTQLVLPGMVERSKGAILNISSGSGMLPVPLLTIYSATKTFVDFFSQCLHEEYRSKGVFVQSVLPYFVATKLAKIRKPTLDKPSPETFVKSAIKTVGLQSRTNGYLIHALMGSIISNLPSWIYLKIVMNMNKSTRAHYLKKTKKN
binds | FAF2 (protein, UniProt Q96CS3 1-445) MAAPEERDLTQEQTEKLLQFQDLTGIESMDQCRHTLEQHNWNIEAAVQDRLNEQEGVPSVFNPPPSRPLQVNTADHRIYSYVVSRPQPRGLLGWGYYLIMLPFRFTYYTILDIFRFALRFIRPDPRSRVTDPVGDIVSFMHSFEEKYGRAHPVFYQGTYSQALNDAKRELRFLLVYLHGDDHQDSDEFCRNTLCAPEVISLINTRMLFWACSTNKPEGYRVSQALRENTYPFLAMIMLKDRRMTVVGRLEGLIQPDDLINQLTFIMDANQTYLVSERLEREERNQTQVLRQQQDEAYLASLRADQEKERKKREERERKRRKEEEVQQQKLAEERRRQNLQEEKERKLECLPPEPSPDDPESVKIIFKLPNDSRVERRFHFSQSLTVIHDFLFSLKESPEKFQIEANFPRRVLPCIPSEEWPNPPTLQEAGLSHTEVLFVQDLTDE
binds | LMAN1 (protein, UniProt P49257 31-510) DGVGGDPAVALPHRRFEYKYSFKGPHLVQSDGTVPFWAHAGNAIPSSDQIRVAPSLKSQRGSVWTKTKAAFENWEVEVTFRVTGRGRIGADGLAIWYAENQGLEGPVFGSADLWNGVGIFFDSFDNDGKKNNPAIVIIGNNGQIHYDHQNDGASQALASCQRDFRNKPYPVRAKITYYQNTLTVMINNGFTPDKNDYEFCAKVENMIIPAQGHFGISAATGGLADDHDVLSFLTFQLTEPGKEPPTPDKEISEKEKEKYQEEFEHFQQELDKKKEEFQKGHPDLQGQPAEEIFESVGDRELRQVFEGQNRIHLEIKQLNRQLDMILDEQRRYVSSLTEEISKRGAGMPGQHGQITQQELDTVVKTQHEILRQVNEMKNSMSETVRLVSGMQHPGSAGGVYETTQHFIDIKEHLHIVKRDIDNLVQRNMPSNEKPKCPELPPFPSCLSTVHFIIFVVVQTVLFIGYIMYRSQQEAAAKKFF
binds | HNRNPR (protein, UniProt O43390 1-633) MANQVNGNAVQLKEEEEPMDTSSVTHTEHYKTLIEAGLPQKVAERLDEIFQTGLVAYVDLDERAIDALREFNEEGALSVLQQFKESDLSHVQNKSAFLCGVMKTYRQREKQGSKVQESTKGPDEAKIKALLERTGYTLDVTTGQRKYGGPPPDSVYSGVQPGIGTEVFVGKIPRDLYEDELVPLFEKAGPIWDLRLMMDPLSGQNRGYAFITFCGKEAAQEAVKLCDSYEIRPGKHLGVCISVANNRLFVGSIPKNKTKENILEEFSKVTEGLVDVILYHQPDDKKKNRGFCFLEYEDHKSAAQARRRLMSGKVKVWGNVVTVEWADPVEEPDPEVMAKVKVLFVRNLATTVTEEILEKSFSEFGKLERVKKLKDYAFVHFEDRGAAVKAMDEMNGKEIEGEEIEIVLAKPPDKKRKERQAARQASRSTAYEDYYYHPPPRMPPPIRGRGRGGGRGGYGYPPDYYGYEDYYDDYYGYDYHDYRGGYEDPYYGYDDGYAVRGRGGGRGGRGAPPPPRGRGAPPPRGRAGYSQRGAPLGPPRGSRGGRGGPAQQQRGRGSRGSRGNRGGNVGGKRKADGYNQPDSKRRQTNNQQNWGSQPIAQQPLQQGGDYSGNYGYNNDNQEFYQDTYGQQWK
binds | GANAB (protein, UniProt Q14697 29-944) ITLAVDRSNFKTCEESSFCKRQRSIRPGLSPYRALLDSLQLGPDSLTVHLIHEVTKVLLVLELQGLQKNMTRFRIDELEPRRPRYRVPDVLVADPPIARLSVSGRDENSVELTMAEGPYKIILTARPFRLDLLEDRSLLLSVNARGLLEFEHQRAPRVSQGSKDPAEGDGAQPEETPRDGDKPEETQGKAEKDEPGAWEETFKTHSDSKPYGPMSVGLDFSLPGMEHVYGIPEHADNLRLKVTEGGEPYRLYNLDVFQYELYNPMALYGSVPVLLAHNPHRDLGIFWLNAAETWVDISSNTAGKTLFGKMMDYLQGSGETPQTDVRWMSETGIIDVFLLLGPSISDVFRQYASLTGTQALPPLFSLGYHQSRWNYRDEADVLEVDQGFDDHNLPCDVIWLDIEHADGKRYFTWDPSRFPQPRTMLERLASKRRKLVAIVDPHIKVDSGYRVHEELRNLGLYVKTRDGSDYEGWCWPGSAGYPDFTNPTMRAWWANMFSYDNYEGSAPNLFVWNDMNEPSVFNGPEVTMLKDAQHYGGWEHRDVHNIYGLYVHMATADGLRQRSGGMERPFVLARAFFAGSQRFGAVWTGDNTAEWDHLKISIPMCLSLGLVGLSFCGADVGGFFKNPEPELLVRWYQMGAYQPFFRAHAHLDTGRREPWLLPSQHNDIIRDALGQRYSLLPFWYTLLYQAHREGIPVMRPLWVQYPQDVTTFNIDDQYLLGDALLVHPVSDSGAHGVQVYLPGQGEVWYDIQSYQKHHGPQTLYLPVTLSSIPVFQRGGTIVPRWMRVRRSSECMKDDPITLFVALSPQGTAQGELFLDDGHTFNYQTRQEFLLRRFSFSGNTLVSSSADPEGHFETPIWIERVVIIGAGKPAAVVLQTKGSPESRLSFQHDPETSVLVLRKPGINVASDWSIHLR
